In PMC3197879 (Oncogene, 2011):

Molecular target: the molecule itself
Assay: SEC

B1: PAX5-C20S-His6 (other)
chain: MDLEKNYPTPRTSRTGHGGVNQLGGVFVNGRPLPDVVRQRIVELAHQGVRPCDISRQLRVSHGCVSKILGRYYETGSIKPGVIGGSKPKVATPKVVEKIAEYKRQNPTMFAWEIRDRLLAERVCDNDTVPSVSSINRIIRTKVQQPPNQPVPASSHSIVSTGSVTQVSSVSTDSAGSSYSISGILGITSPSADTNKRKRDEASLQTGNHSNGPTDLSMKGGASTTSTTPTPTPSSTSTSRPVPTAQLSPTEISAVRQLIAGYRESAAFLLRSADELENLILQQN
  stoichiometry N: 4
